These results are taken from doi:10.1101/2023.11.10.566635.

No constants are given. Whether binding was seen depends on the method and setting. Binding seen in cells or lysates may run through a third protein. A yes stands for co-enrichment or nearness to the bait. Other partners may have been found. Sequences can lack the tags named with a protein.

The experiment addresses T1, 3×FLAG-tagged FBXO24 expressed in transgenic mouse testes (mouse) (UniProt Q9D417).
T1 sequence: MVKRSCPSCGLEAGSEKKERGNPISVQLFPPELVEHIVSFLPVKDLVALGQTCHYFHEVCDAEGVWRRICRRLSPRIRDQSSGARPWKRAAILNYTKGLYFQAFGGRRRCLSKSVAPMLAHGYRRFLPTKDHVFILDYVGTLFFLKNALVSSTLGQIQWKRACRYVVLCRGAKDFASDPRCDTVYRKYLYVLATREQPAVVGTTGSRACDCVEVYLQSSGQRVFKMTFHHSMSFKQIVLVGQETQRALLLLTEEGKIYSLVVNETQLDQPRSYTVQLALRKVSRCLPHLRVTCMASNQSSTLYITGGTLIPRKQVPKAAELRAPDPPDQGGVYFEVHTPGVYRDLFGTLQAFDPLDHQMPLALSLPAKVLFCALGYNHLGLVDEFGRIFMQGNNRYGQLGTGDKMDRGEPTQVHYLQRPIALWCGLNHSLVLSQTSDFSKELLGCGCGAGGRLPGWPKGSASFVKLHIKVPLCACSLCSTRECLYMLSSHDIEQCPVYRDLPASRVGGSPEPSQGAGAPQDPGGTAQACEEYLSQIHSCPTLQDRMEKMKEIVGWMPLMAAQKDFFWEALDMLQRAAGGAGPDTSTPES
The experiment is described as follows: affinity purification with mass spectrometry; IP of FBXO24-FLAG with anti-FLAG antibody from Fbxo24-FLAG Tg mouse testes; elution with 3×FLAG peptide; mass spectrometry.

B1: IPO5 (importin 5), endogenous in mouse testis (protein, UniProt Q8BKC5 1-1097)
chain: MAAAAAEQQQFYLLLGNLLSPDNVVRKQAEETYENIPGRSKITFLLQAIRNTTAAEEARQMAAVLLRRLLSSAFDEVYPALPSDVQTAIKSELLMIIQMETQSSMRKKICDIAAELARNLIDEDGNNQWPEGLKFLFDSVSSQNMGLREAALHIFWNFPGIFGNQQQHYLDVIKRMLVQCMQDQEHPSIRTLSARATAAFILANEHNVALFKHFADLLPGFLQAVNDSCYQNDDSVLKSLVEIADTVPKYLRPHLEATLQLSLKLCGDTNLNNMQRQLALEVIVTLSETAAAMLRKHTSLIAQTIPQMLAMMVDLEEDEDWANADELEDDDFDSNAVAGESALDRMACGLGGKLVLPMIKEHIMQMLQNPDWKYRHAGLMALSAIGEGCHQQMEGILNEIVNFVLLFLQDPHPRVRYAACNAVGQMATDFAPGFQKKFHEKVIAALLQTMEDQGNQRVQAHAAAALINFTEDCPKSLLIPYLDNLVKHLHSIMVLKLQELIQKGTKLVLEQVVTSIASVADTAEEKFVPYYDLFMPSLKHIVENAVQKELRLLRGKTIECISLIGLAVGKEKFMQDASDVMQLLLKTQTDFNDMEDDDPQISYMISAWARMCKILGKEFQQYLPVVMGPLMKTASIKPEVALLDTQDMENMSDDDGWEFVNLGDQQSFGIKTAGLEEKSTACQMLVCYAKELKEGFVEYTEQVVKLMVPLLKFYFHDGVRVAAAESMPLLLECARVRGPEYLTQMWHFMCDALIKAIGTEPDSDVLSEIMHSFAKCIEVMGDGCLNNEHFEELGGILKAKLEEHFKNQELRQVKRQDEDYDEQVEESLQDEDDNDVYILTKVSDILHSIFSSYKEKVLPWFEQLLPLIVNLICPQRPWPDRQWGLCIFDDIVEHCSPASFKYAEYFISPMLQYVCDNSPEVRQAAAYGLGVMAQFGGDNYRPFCTDALPLLVRVIQAPEAKTKENVNATENCISAVGKIMKFKPDCVNVEEVLPHWLSWLPLHEDKEEAVQTFSYLCDLIESNHPIVLGPNNTNLPKIFSIIAEGEMHEAIKHEDPCAKRLANVVRQVQTSGGLWTECIAQLSPEQQAAIQELLNSA
Consider B1, for which the binding result is reported as “binds”.
